This is one part of the list. These are raw signals, not scaled to a control.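 In the initial screen, polymyxin B was used at a concentration that permeabilizes Salmonella's outer membrane but not its inner membrane. Maximum growth was set by DMSO wells with or without polymyxin B. Since plates varied, data were ranked per plate, and compounds giving the lowest OD600 advanced as hits.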
Test system: Salmonella enterica serovar Typhimurium SL1344
Assay: bacterial growth OD600 after 18 h with compound and polymyxin B; higher = more bacterial growth (less inhibition)
Conditions: 50 µM, Mueller-Hinton broth

Structure (SMILES) | bacterial growth OD600 (polymyxin B 0.75 µg/mL) | bacterial growth OD600 (polymyxin B 1 µg/mL)
O=C1N(CC2CCCCC2)CCCC1(O)CNC1CCCC1 (configuration not stated) | 1.02 | –
Cc1nonc1CN(C)c1ccc(-c2nc(Cc3ccc(F)cc3)no2)cn1 | 0.772 | –
Cc1nccn1-c1ccc(NC(=O)C2CCCN2C(=O)c2ccoc2)cc1 (configuration not stated) | 0.817 | –
Cc1ccc(CN2CCOc3ccc(C(C)(O)COc4ccccc4)cc3C2)s1 (configuration not stated) | 0.023 | –
COc1cccc(CN2CCCC(O)(CN3CCC4(CC3)OCCO4)C2=O)c1 (configuration not stated) | – | 0.803
COc1cccc(CC2(CO)CCCN(Cc3cn(C)nc3C)C2)c1 (configuration not stated) | – | 0.926
COC(=O)c1ccc(CNC2CCN(c3ccc(CC(=O)NCc4ccccc4)cc3)CC2)cc1 | 0.919 | –
CCOC(=O)N1CCC(NC(=O)c2ccc(OC3CCN(C)CC3)c(OC)c2)CC1 | 0.845 | –
O=C(c1cn(C2CCCCC2)nn1)N1CCCC1c1ccc(F)cc1 (configuration not stated) | – | 0.66
O=C(Cc1cn2ccsc2n1)NCc1cccnc1Oc1ccccc1 | – | 0.879
CCOC(=O)C1(CCCc2ccccc2)CCCN(C(=O)c2cc(=O)n(C)c(=O)n2C)C1 (configuration not stated) | – | 1.09
COC(=O)C1CCCCN1Cc1nc(NCc2cccs2)c2ccccc2n1 (configuration not stated) | 0.687 | –
CC(=O)Nc1ccc(C(=O)N2CCCC(Nc3cccc(F)c3)C2)cc1 (configuration not stated) | – | 0.004
O=C(c1ccc2c(c1)OCO2)N1CCc2[nH]nc(-c3ccccc3F)c2C1 | 0.477 | –
Cc1ccccc1-c1noc(-c2ccc(N3CCC(CCO)CC3)nc2)n1 | 0.532 | –
O=C(CCC1CCCN(Cc2ccccc2F)C1)NC1CC1 (configuration not stated) | 0.938 | –

Structure (SMILES) | bacterial growth OD600 (polymyxin B 0.75 µg/mL) | bacterial growth OD600 (polymyxin B 1 µg/mL)
Nc1cc(C(=O)N2CCC(C3CCN(c4ncccn4)CC3)C2)ccn1 (configuration not stated) | 0.984 | –
CN(Cc1cccs1)Cc1cnc(S(C)(=O)=O)n1CC1CCCO1 (configuration not stated) | – | 1.03
Cc1cc(-c2cc(F)cc3c2OC(CNC(=O)c2ccco2)C3)ccc1F (configuration not stated) | -0.001 | –
CCCCC1CN(CCC(=O)NC(C)Cc2ccccn2)Cc2ccccc2O1 (configuration not stated) | 0.706 | –
O=C(NCCc1c[nH]c2ccccc12)c1cccc(OC2CCN(C(=O)C3CC3)CC2)c1 | – | 0.923
COc1ccc(C(=O)N2CCOC(Cc3cccc(C(F)(F)F)c3)C2)o1 (configuration not stated) | 0.775 | –
O=C(c1ccccc1OC1CCN(Cc2c(F)cccc2Cl)CC1)N1CCCC1 | – | 1.08
CCOC(=O)C1(Cc2ccccc2F)CCCN(C(=O)c2ccccc2C(=O)OC)C1 (configuration not stated) | – | 0.647
CCOC(=O)C1(Cc2ccc(F)cc2)CCCN(C(=O)c2cc(C(C)=O)n[nH]2)C1 (configuration not stated) | – | 1.01
CC(=O)N1CCN(c2nc(CN(CCc3ccccc3)Cc3ccccc3)nc3ccccc23)CC1 | 0.844 | –
CC(=O)NCCC(=O)N1CCCC(CCc2cccc(C(F)(F)F)c2)C1 (configuration not stated) | 0.011 | –
COc1ccccc1CCNC(=O)Cc1ccc(N2CCC(NCCn3cccn3)CC2)cc1 | 0.813 | –
Cc1ccc(CNC(=O)C2CCCN(C3CCN(C(=O)C4CC4)CC3)C2)cc1F (configuration not stated) | – | 0.829
COc1cc(CN2CCC(n3nccc3NC(=O)c3ccccc3)CC2)cc(OC)c1 | 0.881 | –
COc1ccccc1CCNC(=O)Cc1ccc(N2CCC(NC(C)Cc3cncs3)CC2)cc1 (configuration not stated) | 0.859 | –
COCc1ccc(C(=O)NCc2cccnc2N2CCOCC2)o1 | – | 1.05

Two of the compounds above, as comma-separated lines.
Structure (SMILES),bacterial growth OD600 (polymyxin B 0.75 µg/mL),bacterial growth OD600 (polymyxin B 1 µg/mL)
Nc1cc(C(=O)N2CCC(C3CCN(c4ncccn4)CC3)C2)ccn1 (configuration not stated),0.984,–
COc1ccccc1CCNC(=O)Cc1ccc(N2CCC(NCCn3cccn3)CC2)cc1,0.813,–

Source: the supplement of paper PMC12889115
